Results as given in PMC6361795.
For at least one entry, the source does not settle the construct or the ends of the probe.

Protein sequences, listed by entry. Tags and fused reporters are not part of them. Lines headed by an entry give the natural chain unless they say otherwise; changes in a name come on top.
UniProt A0QST8: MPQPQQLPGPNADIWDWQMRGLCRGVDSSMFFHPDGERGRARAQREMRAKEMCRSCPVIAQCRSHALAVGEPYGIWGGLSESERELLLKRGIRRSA

Target: apo-WhiB3, diamide-treated (Mycobacterium smegmatis MC2 155) (UniProt A0QST8)
Experiment: EMSA
Conditions: apo-WhiB3 treated with diamide, anaerobic, 10 nM probe; EMSA: 25°C, 20 min; 10 nM biotin probe; 100 V; binding buffer; recombinant protein; residues 1-96; protein details: His-tag (pET-28a); label: biotin (universal biotinylated primer S1); probe letters rebuilt from the primers and the genome

“AGCCAGTGGCGATAAGTTACGGAAAAGCGAATAAAACCCCCCTCGCCACGGCTTTTCTCGGATGGCATGTGGCATACGGGCCGTGGTACTAAGTACGCCGATCGCGTCATTAGTAGGGGAAGCTTTGACTCAAAATTGTGTTGCTCCTGTTGCCATCATCCTTATCGCCACTGGCT (double strand) [pks5 promoter probe]”: binds.
